Consider two molecules from PMC10870779.

Amino acid sequences for entries named in this document (tags omitted). A change or cut given only in a name is not applied to a line headed by its entry.
UniProt P83887: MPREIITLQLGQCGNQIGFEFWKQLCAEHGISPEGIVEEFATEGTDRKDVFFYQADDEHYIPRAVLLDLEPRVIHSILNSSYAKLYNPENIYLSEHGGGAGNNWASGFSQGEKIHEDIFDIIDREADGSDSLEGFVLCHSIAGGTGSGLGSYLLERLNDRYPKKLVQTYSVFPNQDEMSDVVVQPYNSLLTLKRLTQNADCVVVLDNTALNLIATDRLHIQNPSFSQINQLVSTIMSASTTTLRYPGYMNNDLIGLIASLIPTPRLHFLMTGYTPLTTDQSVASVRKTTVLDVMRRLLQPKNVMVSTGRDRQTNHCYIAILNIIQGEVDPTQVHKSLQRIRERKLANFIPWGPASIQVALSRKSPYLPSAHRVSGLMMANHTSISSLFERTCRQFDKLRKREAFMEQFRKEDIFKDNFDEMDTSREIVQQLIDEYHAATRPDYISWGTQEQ

These are yes or no findings as the source states them, for the method shown. Binding seen in cells or lysates may run through a third protein. Binding calls can cover weak binding; strength is not graded here. For some assays here: Sequences can lack the tags named with a protein.

Experiment [1] addresses γ-tubulin, endogenous (mouse (endogenous in BMMCL)) (UniProt P83887). Briefly: co-IP; whole-cell extracts of cells expressing GIT2-TagRFP or TagRFP alone; protein A beads with rabbit Ab to tRFP or mAb to γ-tubulin; immunoblot. (In general: A western blot detects proteins with antibodies after separation by electrophoresis.)
Experiment [2] has the same target. Briefly: co-IP; whole-cell 1% NP-40 extracts of BMMCL (HEPES buffer pH 7.6, 75 mM NaCl, 1 mM MgCl2, 1 mM EGTA) incubated with protein A beads saturated with rabbit Ab to GIT2 or mouse mAb TU-31 to γ-tubulin; endogenous proteins; immunoblot.

B1: C-terminally TagRFP-tagged mouse GIT2, transcript variant 1 (protein, UniProt Q9JLQ2 1-708)
chain: MSKRLRSSDVCADCNGPDPSWASVNRGTFICDECCSVHRSLGRHISQVRHLKHTAWPPTLLQMVETLYNNGANSIWEHSLLDPASIMSGRRKANPQDKVHPNKAEFIRAKYQMLAFVHRLPCREDDSVTAKDLSKQLHSSVRTGNLETCLRLLSLGAQANFFHPEKGSTPLHVASKAGQILQAELLAVYGADPGTQDSSGKTPVDYARQGGHHELAERLIEIQYELTDRLAFYLCGRKPDHKSGQHFLIPQRADSLDLSELAKAAKKKLQSLSNHLFEELAMDVYDEVDRRETDAVWLATQNHSTLVTETTVVPFLPVNPEYSSTRNQGRQKLARFNAHEFATLVIDILSDAKRRQQGSPLSRSKDNVELILRTVSTQHSTESQDNDQPDYDSVASDEDTDVETRASKANRQKLQTLQSENSSLRRQATASACQVQTGSDHKDTASHSSLKRRPSARGSRPMSMYETGSGQKPYLPMGEASHPEESRTRLQPFPTHIGRSALVTSSSSLPSFPSTLSWSRDESARRASRLEKQNSTPESDYDNTACDPEPDDTGSTRKGRQRSMLWQGDGLLPDTAEPHSVPSPTLPSTEDVIRKTEQITKNIQELLRAAQENKHDSYIPCSERIHVAVTEMAALFPKKPKSDTVRTSLRLLTSSAYRLQSECRKALPGDSSLPTDVQLVTQQVIQCAYDIAKAAKQLVTITTKENSS
On to B1, for which the binding entry in experiment [1] is recorded as “binds”.

B2: G protein-coupled receptor kinase-interacting protein 2 (GIT2), GIT2-long, endogenous (protein, UniProt Q9JLQ2 1-708)
chain: MSKRLRSSDVCADCNGPDPSWASVNRGTFICDECCSVHRSLGRHISQVRHLKHTAWPPTLLQMVETLYNNGANSIWEHSLLDPASIMSGRRKANPQDKVHPNKAEFIRAKYQMLAFVHRLPCREDDSVTAKDLSKQLHSSVRTGNLETCLRLLSLGAQANFFHPEKGSTPLHVASKAGQILQAELLAVYGADPGTQDSSGKTPVDYARQGGHHELAERLIEIQYELTDRLAFYLCGRKPDHKSGQHFLIPQRADSLDLSELAKAAKKKLQSLSNHLFEELAMDVYDEVDRRETDAVWLATQNHSTLVTETTVVPFLPVNPEYSSTRNQGRQKLARFNAHEFATLVIDILSDAKRRQQGSPLSRSKDNVELILRTVSTQHSTESQDNDQPDYDSVASDEDTDVETRASKANRQKLQTLQSENSSLRRQATASACQVQTGSDHKDTASHSSLKRRPSARGSRPMSMYETGSGQKPYLPMGEASHPEESRTRLQPFPTHIGRSALVTSSSSLPSFPSTLSWSRDESARRASRLEKQNSTPESDYDNTACDPEPDDTGSTRKGRQRSMLWQGDGLLPDTAEPHSVPSPTLPSTEDVIRKTEQITKNIQELLRAAQENKHDSYIPCSERIHVAVTEMAALFPKKPKSDTVRTSLRLLTSSAYRLQSECRKALPGDSSLPTDVQLVTQQVIQCAYDIAKAAKQLVTITTKENSS
Turning to B2, the binding result in experiment [2] was “binds”.
